Data from publication doi:10.1101/2023.09.13.557610.
Where two headings read alike, the source gives them in different places. These are yes or no findings as the source states them, for the method shown. In cells and extracts the contact can be indirect. Here binding means that the protein was enriched with, or labelled near, the bait; the list need not be complete. Where a sequence is shown, tags or fusion partners need not be part of it.

What was measured:
SPCA2C-BirA*HA (mouse) [1] = assay: proximity labelling
SPCA2C-BirA*HA (mouse) [2] = assay: proximity labelling; remark: listed apart in the source

- binding (SPCA2C-BirA*HA (mouse) [1]): binds
- binding (SPCA2C-BirA*HA (mouse) [2]): binds
B1: extended synaptotagmin-1 (ESYT1), endogenous (protein, UniProt Q9BSJ8 1-1104)
chain: MERSPGEGPSPSPMDQPSAPSDPTDQPPAAHAKPDPGSGGQPAGPGAAGEALAVLTSFGRRLLVLIPVYLAGAVGLSVGFVLFGLALYLGWRRVRDEKERSLRAARQLLDDEEQLTAKTLYMSHRELPAWVSFPDVEKAEWLNKIVAQVWPFLGQYMEKLLAETVAPAVRGSNPHLQTFTFTRVELGEKPLRIIGVKVHPGQRKEQILLDLNISYVGDVQIDVEVKKYFCKAGVKGMQLHGVLRVILEPLIGDLPFVGAVSMFFIRRPTLDINWTGMTNLLDIPGLSSLSDTMIMDSIAAFLVLPNRLLVPLVPDLQDVAQLRSPLPRGIIRIHLLAARGLSSKDKYVKGLIEGKSDPYALVRLGTQTFCSRVIDEELNPQWGETYEVMVHEVPGQEIEVEVFDKDPDKDDFLGRMKLDVGKVLQASVLDDWFPLQGGQGQVHLRLEWLSLLSDAEKLEQVLQWNWGVSSRPDPPSAAILVVYLDRAQDLPLKKGNKEPNPMVQLSIQDVTQESKAVYSTNCPVWEEAFRFFLQDPQSQELDVQVKDDSRALTLGALTLPLARLLTAPELILDQWFQLSSSGPNSRLYMKLVMRILYLDSSEICFPTVPGCPGAWDVDSENPQRGSSVDAPPRPCHTTPDSQFGTEHVLRIHVLEAQDLIAKDRFLGGLVKGKSDPYVKLKLAGRSFRSHVVREDLNPRWNEVFEVIVTSVPGQELEVEVFDKDLDKDDFLGRCKVRLTTVLNSGFLDEWLTLEDVPSGRLHLRLERLTPRPTAAELEEVLQVNSLIQTQKSAELAAALLSIYMERAEDLPLRKGTKHLSPYATLTVGDSSHKTKTISQTSAPVWDESASFLIRKPHTESLELQVRGEGTGVLGSLSLPLSELLVADQLCLDRWFTLSSGQGQVLLRAQLGILVSQHSGVEAHSHSYSHSSSSLSEEPELSGGPPHITSSAPELRQRLTHVDSPLEAPAGPLGQVKLTLWYYSEERKLVSIVHGCRSLRQNGRDPPDPYVSLLLLPDKNRGTKRRTSQKKRTLSPEFNERFEWELPLDEAQRRKLDVSVKSNSSFMSRERELLGKVQLDLAETDLSQGVARWYDLMDNKDKGSS
